Laboratory results from PubChem BioAssay AID1347423 (Functional Genomics Laboratory (NCATS/FGL), 2020).
About 210 (0.4%) of roughly 52,000 sequences were called active.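 The calls were made as follows: active = gene whose silencing raises cell survival under the drug, median off-target-corrected z-score across its silencing RNAs 2 or more; inactive = the rest.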 Some of the results follow.

Assay: Resistance to Poly (ADP-Ribose) Polymerase inhibitor: Gene Identification via Genome-wide siRNA Screen
Details: mouse BRCA2 R2336H ES cells, olaparib, CellTiter-Glo viability; hits give high values
In short: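 Mouse BRCA2 R2336H ES cells were reverse-transfected with siRNA (20 nM final), treated at 48 h with 500 nM olaparib, and read by CellTiter-Glo after 72 h. Scores: MAD-based z per siRNA, median per gene, seed off-target correction.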

| Sequence | z-score |
| --- | --- |
| CCUAUGUCCACCACAAAUGTT against AI447904 | inactive: 0.126 |
| CGGUGAUGCGAUAUAAUGUTT against Serpine2 | inactive: 0.0598 |
| CCUACUAUACAAUUCUGCUTT against Clns1a | inactive: -0.00478 |
| GCACAAUACUGUGAUCGAATT against B130021E18 | inactive: 0.105 |
| GCUUACAAGCUGGUAUCAUTT against LOC333669 | inactive: -0.358 |
| GGCCAUGAAUGGAAUGUACTT against Slco1a1 | inactive: -2.02 |
| GGGCUACAGCAUGUAUGAGTT against BC057627 | active: 2.38 |
| GCAAGUGAAUACCAGAUCCTT against Pcdhac1 | inactive: 0.553 |
| GGUGAACUAGAAAUCAGAUTT against 9330154K18Rik | inactive: 0.503 |
| GGAAUUUCUGUGCAUUAAATT against Astn2 | inactive: -0.794 |
| GCAAGGGAAUGUGUGCCUUTT against Olfr16 | inactive: 1.1 |
| CCUUCGAAGUGCUAUGGGATT against Apbb1 | inactive: 2.34 |
| GGAGCUCAACAGUGAGAACTT against 4932439K10Rik | inactive: -0.17 |
| GGACUUACAUGGAAUUUUATT against Snrp116 | inactive: -2.59 |
| GGAUCUUGUAGAGCAAAAUTT against Rnmt | inactive: 0.609 |
| GCUAGUGGUAAGUCAACCATT against D6Ertd349e | inactive: -0.584 |
| GCGAAUGCUUAAAAUAGCATT against Cdv1 | inactive: 0.326 |
| GGUGAUAUUCCUAUCUAAATT against Mbnl1 | inactive: -0.474 |
| GGAUGAUAUGGUAACCUGCTT against Rnf137 | inactive: 1.2 |
| CUAGAAGUGAUGGCUUUCATT against Olfr814 | inactive: -2 |
| GGCAAAGAAAGGCAAGCCUTT against Cyp3a11 | inactive: -0.079 |
| GGUGCUGCACAAAUACAUATT against 5630401D24Rik | inactive: 0.876 |

| Sequence | z-score |
| --- | --- |
| GGAGGAAGAAACAACAAUGTT against BB146404 | inactive: -0.439 |
| GGCUAGAAUGCACAUUUUATT against 4930438D12Rik | inactive: 1.39 |
| GCAGGCAUCGUGUUUACCATT against Cdh20 | inactive: 0.568 |
| GGGUUCCUAAAUAGAAAAUTT against Nanos1 | inactive: 0.336 |
| GGUCACCCAUUUCUUUUGUTT against Olfr361 | inactive: 0.671 |
| GGCUAUGGCAAGCUAAGCATT against Pex2 | inactive: -1.2 |
| CGGCAGGAUGAAUGAGAUCTT against Bccip | inactive: 0.692 |
| GGAGAUAACGUACAUCAACTT against Sfrp2 | inactive: 1.58 |
| GCAUCUAUCAAUAAGGAGUTT against Lphn1 | inactive: -0.442 |
| GGUGGUCUUUUCCCAGCAGTT against D430026P16Rik | inactive: 0.206 |
| CCUAAAUCCUUUUGAACCCTT against D10Ertd641e | inactive: 0.559 |
| GGAUGGUGUAGCACAUUUCTT against Tulp2 | inactive: 0.46 |
| GGCGAAGCACUCGAAUUUCTT against Slc23a2 | inactive: 0.832 |
| GCCUUCGUCUCCAAGUAUATT against Plagl1 | inactive: -1.09 |
| GGACAAUCAGACCCUGUCATT against 2010315L10Rik | inactive: -2.42 |
| GGACUCAUAUUCGUAUGUATT against Zfr | inactive: 0.596 |
| GGCUUUUAGCUACCUUGUGTT against AW209491 | inactive: -0.171 |
| GGAAAGCUCAAUUGGUUCGTT against Pcnt1 | inactive: -2.86 |
| GGGAGAAGAAAAGAAGACATT against Cldn23 | inactive: -0.34 |
| CGUGCCACUUUUACCGUCCTT against Zdhhc8 | inactive: 1.71 |
| GGAAGCACUGAUGAAUUAUTT against Phca | inactive: -1.66 |
| GGAGCUAGACAAAACUAAATT against AJ543404 | inactive: 0.44 |

| Sequence | z-score |
| --- | --- |
| GGAGAUCUAUAAGGAUAGATT against Flot1 | inactive: -0.608 |
| GGAGGAAAAUGAUGGAGAGTT against 2610022K04Rik | inactive: -0.0281 |
| GCACACCAGCGACAUUCUATT against Aipl1 | inactive: 1.25 |
| CGAUCCAGUAUUCGAAGCATT against Sqstm1 | inactive: 0.0198 |
| GGAUUGGAUCCGAGACCAATT against Fbxo23 | inactive: 0.0529 |
| GCAGACUCCCAUGUGGAUUTT against 1700067K01Rik | inactive: -0.242 |
| CCUUGAGUGAAAAAGGUUUTT against Top2b | inactive: -0.151 |
| GGUUGUGGUAGUCCGCUAUTT against Mrpl2 | inactive: 0.043 |
| GGAAUUUUCUUCAUUUGGATT against Pabpc5 | inactive: -0.17 |
| GGGCGUGUUAUCAAUGUCUTT against Dhrs9 | inactive: 0.149 |
| GGUACUGCAACUACAUGAUTT against Rnase12 | inactive: 2.77 |
| CCUUUAUGAAUGAACAGGGTT against Cnot7 | inactive: 0.267 |
| UCUUUGUGGUAGCCAUCCUTT against Olfr129 | inactive: -1.14 |
| GGCCAUUUCCAGCUUGAGUTT against 4930457P18Rik | inactive: -1.06 |
| CCAAGAUCUAUGGAGGACGTT against Rps19 | inactive: -1.98 |
| GCCUUUGUACAAUGACUAUTT against 2410002M20Rik | inactive: -0.17 |
| GGAAUUUGCUACGAAUCUCTT against 2410127E16Rik | inactive: 0.45 |
| CCCUAUCCUGUUCAUCUCUTT against Gpr50 | inactive: 1.18 |
| GCAUCCAUCAAAUCAAAAUTT against Met | inactive: 0.976 |
| GGAAUUUUGACAGAAAACCTT against Cradd | inactive: -0.599 |
| GGAGAUUCUAAAGACAGAGTT against 4931408L03Rik | inactive: -0.33 |
| CGAUAACAGCUGUUAACGUTT against Mttp | inactive: 0.596 |

Some of the entries so far, with tabs:
Sequence	z-score
GCUUACAAGCUGGUAUCAUTT against LOC333669	inactive: -0.358
GCAAGUGAAUACCAGAUCCTT against Pcdhac1	inactive: 0.553
GGCUAUGGCAAGCUAAGCATT against Pex2	inactive: -1.2
GGUGGUCUUUUCCCAGCAGTT against D430026P16Rik	inactive: 0.206
GGAUGGUGUAGCACAUUUCTT against Tulp2	inactive: 0.46
GGAAAGCUCAAUUGGUUCGTT against Pcnt1	inactive: -2.86
GGAGCUAGACAAAACUAAATT against AJ543404	inactive: 0.44
GCACACCAGCGACAUUCUATT against Aipl1	inactive: 1.25
GCAGACUCCCAUGUGGAUUTT against 1700067K01Rik	inactive: -0.242
GGUACUGCAACUACAUGAUTT against Rnase12	inactive: 2.77
UCUUUGUGGUAGCCAUCCUTT against Olfr129	inactive: -1.14
GGAAUUUUGACAGAAAACCTT against Cradd	inactive: -0.599
